Chains of the proteins cited; added tags and fusions are not shown.
UniProt P0AAW9: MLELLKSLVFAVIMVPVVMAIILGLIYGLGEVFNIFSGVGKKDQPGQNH

According to PMC11539335:

Molecular target: C-terminal FLAG-tagged AcrZ from Escherichia coli (E. coli) (UniProt P0AAW9)
Test: affinity purification with mass spectrometry; cell-free synthesised FLAG-tagged bait (approximately 100 pmol) incubated with 200 μl total membrane of the corresponding E. coli KO strain solubilised in 1% LMNG (8 mg/ml) at 4 °C overnight; anti-FLAG M2 magnetic beads 16 h; ten washes (20 mM Tris-HCl pH 8.0, 150 mM NaCl, 0.01% LMNG); eluted with SLS at 90 °C, shotgun MS; enriched at Z-score of at least 2 in two experiments

binding: binds
B1: MdtF (protein, UniProt P37637 1-1037)
chain: MANYFIDRPVFAWVLAIIMMLAGGLAIMNLPVAQYPQIAPPTITVSATYPGADAQTVEDSVTQVIEQNMNGLDGLMYMSSTSDAAGNASITLTFETGTSPDIAQVQVQNKLQLAMPSLPEAVQQQGISVDKSSSNILMVAAFISDNGSLNQYDIADYVASNIKDPLSRTAGVGSVQLFGSEYAMRIWLDPQKLNKYNLVPSDVISQIKVQNNQISGGQLGGMPQAADQQLNASIIVQTRLQTPEEFGKILLKVQQDGSQVLLRDVARVELGAEDYSTVARYNGKPAAGIAIKLAAGANALDTSRAVKEELNRLSAYFPASLKTVYPYDTTPFIEISIQEVFKTLVEAIILVFLVMYLFLQNFRATIIPTIAVPVVILGTFAILSAVGFTINTLTMFGMVLAIGLLVDDAIVVVENVERVIAEDKLPPKEATHKSMGQIQRALVGIAVVLSAVFMPMAFMSGATGEIYRQFSITLISSMLLSVFVAMSLTPALCATILKAAPEGGHKPNALFARFNTLFEKSTQHYTDSTRSLLRCTGRYMVVYLLICAGMAVLFLRTPTSFLPEEDQGVFMTTAQLPSGATMVNTTKVLQQVTDYYLTKEKDNVQSVFTVGGFGFSGQGQNNGLAFISLKPWSERVGEENSVTAIIQRAMIALSSINKAVVFPFNLPAVAELGTASGFDMELLDNGNLGHEKLTQARNELLSLAAQSPNQVTGVRPNGLEDTPMFKVNVNAAKAEAMGVALSDINQTISTAFGSSYVNDFLNQGRVKKVYVQAGTPFRMLPDNINQWYVRNASGTMAPLSAYSSTEWTYGSPRLERYNGIPSMEILGEAAAGKSTGDAMKFMADLVAKLPAGVGYSWTGLSYQEALSSNQAPALYAISLVVVFLALAALYESWSIPFSVMLVVPLGVVGALLATDLRGLSNDVYFQVGLLTTIGLSAKNAILIVEFAVEMMQKEGKTPIEAIIEAARMRLRPILMTSLAFILGVLPLVISHGAGSGAQNAVGTGVMGGMFAATVLAIYFVPVFFVVVEHLFARFKKA

Results are given in words; binding and its absence hold for the method and conditions named. Binding seen in cells or lysates may run through a third protein. Here binding means that the protein was enriched with, or labelled near, the bait; the list need not be complete.
